Test results as given in paper PMC12561377.

Molecular target: T1, zinc finger DHHC‐type palmitoyltransferase 12 (ZDHHC12) (human (endogenous in Huh7 and Hep3B)) (UniProt Q96GR4)
T1 sequence: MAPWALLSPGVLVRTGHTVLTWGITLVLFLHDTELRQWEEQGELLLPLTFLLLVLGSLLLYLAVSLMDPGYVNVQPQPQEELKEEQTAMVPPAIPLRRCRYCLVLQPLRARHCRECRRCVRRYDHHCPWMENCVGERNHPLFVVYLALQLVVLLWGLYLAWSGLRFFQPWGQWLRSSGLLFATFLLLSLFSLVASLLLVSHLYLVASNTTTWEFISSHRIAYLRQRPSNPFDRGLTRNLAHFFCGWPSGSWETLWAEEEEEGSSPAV
Assay: affinity purification with mass spectrometry; ZDHHC12 pull‐down from Hep3B cells with antibodies to ZDHHC12, then mass spectrometry

binding: binds
B1: histone deacetylase 8 (HDAC8) (enzyme, UniProt Q9BY41 1-377)
chain: MEEPEEPADSGQSLVPVYIYSPEYVSMCDSLAKIPKRASMVHSLIEAYALHKQMRIVKPKVASMEEMATFHTDAYLQHLQKVSQEGDDDHPDSIEYGLGYDCPATEGIFDYAAAIGGATITAAQCLIDGMCKVAINWSGGWHHAKKDEASGFCYLNDAVLGILRLRRKFERILYVDLDLHHGDGVEDAFSFTSKVMTVSLHKFSPGFFPGTGDVSDVGLGKGRYYSVNVPIQDGIQDEKYYQICESVLKEVYQAFNPKAVVLQLGADTIAGDPMCSFNMTPVGIGKCLKYILQWQLATLILGGGGYNLANTARCWTYLTGVILGKTLSSEIPDHEFFTAYGPDYVLEITPSCRPDRNEPHRIQQILNYIKGNLKHVV

These are yes or no findings as the source states them, for the method shown. Binding seen in cells or lysates may run through a third protein. Here binding means that the protein was enriched with, or labelled near, the bait; the list need not be complete. Tags and fused reporters may be left off the sequences shown.
